Laboratory results reported in PMC7457778.
Results are given in words; binding and its absence hold for the method and conditions named. Binding seen in cells or lysates may run through a third protein. Some results given as binding are weak or reduced against the parent protein; the word gives no strength. Where a sequence is shown, tags or fusion partners need not be part of it.

T1: HA-tagged TRIM59 (tripartite motif-containing 59) (human) (UniProt Q8IWR1)
T1 sequence: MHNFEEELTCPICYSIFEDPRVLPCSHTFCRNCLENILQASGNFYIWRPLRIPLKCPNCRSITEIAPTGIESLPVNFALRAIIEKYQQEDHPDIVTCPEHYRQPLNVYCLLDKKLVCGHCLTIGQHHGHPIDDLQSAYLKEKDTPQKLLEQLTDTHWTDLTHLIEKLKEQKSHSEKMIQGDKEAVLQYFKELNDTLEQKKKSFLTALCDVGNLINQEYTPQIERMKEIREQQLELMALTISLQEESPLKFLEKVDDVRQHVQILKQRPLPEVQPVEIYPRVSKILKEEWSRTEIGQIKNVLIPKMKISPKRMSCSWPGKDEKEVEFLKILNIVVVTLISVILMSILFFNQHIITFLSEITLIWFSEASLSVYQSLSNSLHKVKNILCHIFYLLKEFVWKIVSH

T2: Myc-tagged ABHD5 (abhydrolase domain containing 5) (UniProt Q8WTS1)
T2 sequence: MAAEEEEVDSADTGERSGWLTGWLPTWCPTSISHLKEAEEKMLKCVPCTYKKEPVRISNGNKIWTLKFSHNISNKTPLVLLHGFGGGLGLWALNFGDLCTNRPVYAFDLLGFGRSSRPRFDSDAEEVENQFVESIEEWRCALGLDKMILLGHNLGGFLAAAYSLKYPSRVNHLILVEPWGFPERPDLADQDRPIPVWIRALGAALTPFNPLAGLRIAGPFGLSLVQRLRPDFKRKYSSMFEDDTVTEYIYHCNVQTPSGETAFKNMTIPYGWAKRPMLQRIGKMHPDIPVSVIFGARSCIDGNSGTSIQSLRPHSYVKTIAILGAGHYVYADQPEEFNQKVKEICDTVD

B1: Myc-tagged ABHD5 (abhydrolase domain containing 5) (protein, UniProt Q8WTS1 1-349)
chain: T2 sequence
B2: HA-tagged TRIM59 (tripartite motif-containing 59) (protein, UniProt Q8IWR1 1-403)
chain: T1 sequence

Tests used:
[1] = target: T1, HA-tagged TRIM59 (tripartite motif-containing 59) (human); test: co-IP; HEK-293 cells co-transfected with HA-TRIM59 and Myc-ABHD5; lysates precipitated with anti-HA or anti-Myc agarose beads, blotted for the other tag; purified IgG as negative control
[2] = target: T2, Myc-tagged ABHD5 (abhydrolase domain containing 5); test: proximity ligation; THP-1 macrophages transiently transfected with HA-TRIM59 and Myc-ABHD5; rabbit anti-HA and mouse anti-Myc, Duolink In Situ Red Kit, fixed and permeabilised cells
[3] = target: T2, Myc-tagged ABHD5 (abhydrolase domain containing 5); test: co-IP; HEK-293 cells co-transfected with HA-TRIM59 and Myc-ABHD5; lysates precipitated with anti-HA or anti-Myc agarose beads, blotted for the other tag; purified IgG as negative control

Binder | binding [1] | binding [2] | binding [3]
B1 | binds | – | –
B2 | – | binds | binds
